Values quoted from earlier work as cited in US20120010144A1, “Peg-albumin composition having at least one protected thiol region as a platform for medications” (priority 2009, published 2012).

Details: human liver

Question: For `Cc1c(C)c2c(c(C)c1O)CC[C@@](C)(CCC[C@H](C)CCC[C@H](C)CCCC(C)C)O2` [A-Tocopherol], which “Concentration in liver tissue” value is on record?
Answer: 50 (human) μmol/kg

Question: Which “Concentration in liver tissue” value does the source give for `O=C1O[C@H]([C@@H](O)CO)C(O)=C1O` [Ascorbic acid] here?
Answer: 260 (human) μmol/kg

Question: For `N[C@@H](CCC(=O)N[C@@H](CS)C(=O)NCC(=O)O)C(=O)O` [Glutathione], which “Concentration in liver tissue” value is on record?
Answer: 6,400 (human) μmol/kg

Question: Which “Concentration in liver tissue” value does the source give for `COc1c(O)c(C)c(C/C=C(\C)CC/C=C(\C)CC/C=C(\C)CC/C=C(\C)CC/C=C(\C)CC/C=C(\C)CC/C=C(\C)CC/C=C(\C)CC/C=C(\C)CCC=C(C)C)c(O)c1OC` [Ubiquinol] here?
Answer: 200 (human) μmol/kg

Question: For `O=c1[nH]c(=O)c2[nH]c(=O)[nH]c2[nH]1` [Uric Acid], which “Concentration in liver tissue” value is on record?
Answer: 1,600 (human) μmol/kg

Question: Which “Concentration in liver tissue” value does the source give for Carotenes here?
Answer: 5 (human, total μmol/kg
